PubChem BioAssay AID652243, Drosophila RNAi Screening Center, 2013
The screen tested about 24,000 reagents; below is a random part of those that have a named target and a result. In the full data, 246 (1%) got an active call. 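Plates not normalised; calls are printed but the firefly/Renilla ratio behind them is not deposited; fold cut for lowering reported inconsistently.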 Raw values are not corrected between plates. Names joined by + are all predicted targets of the reagent. Not given: the amount of reagent.

Purpose: 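Knock-downs that decrease or increase androgen receptor reporter signal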 (primary screen)
Cells: Drosophila S2R+ cells
Knock-down reagent: long dsRNA against Drosophila genes
Duration: 72 h (48 h, then 24 h hormone)
Conditions: synthetic androgen R1881 at 10 nM for 24 h
Measurement: 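Firefly light from an androgen-responsive reporter and Renilla control light per well, raw and unnormalised, for each of two replicates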
Direction: firefly reporter light: higher = more light from androgen-responsive reporter; Renilla control light: higher = more constitutive control signal (cell number, transfection)
Rule for the call: 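Hit when the log firefly-to-Renilla ratio dropped or increased by a fixed fold versus the mean of GFP or LacZ controls across duplicate plates; lowering cut given as 1.5 and as 3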
Calls: active = hit: reporter lowered or raised; inactive = no hit

| Gene | amplicon | firefly reporter light, replicate 1 | firefly reporter light, replicate 2 | Renilla control light, replicate 1 | Renilla control light, replicate 2 | activity call |
| --- | --- | --- | --- | --- | --- | --- |
| CG31606 | DRSC01012 | 79907 | 1.05e5 | 2.66e5 | 2.56e5 | inactive |
| CG10970 | DRSC17772 | 1.61e5 | 1.21e5 | 1.15e6 | 6.51e5 | inactive |
| out | DRSC19347 | 60499 | 80398 | 4.91e5 | 5.53e5 | inactive |
| out | DRSC28913 | 3.07e5 | 3.28e5 | 1.06e6 | 1.05e6 | inactive |
| xit | DRSC18364 | 83089 | 59674 | 7.12e5 | 5.32e5 | inactive |
| Isha | DRSC04456 | 8.68e5 | 5.98e5 | 2.35e6 | 1.96e6 | inactive |
| spi | DRSC03618 | 1.50e5 | 70641 | 1.46e6 | 9.38e5 | inactive |
| spi | DRSC29414 | 5.44e5 | 6.99e5 | 1.34e6 | 1.34e6 | inactive |
| CG33510 | DRSC37782 | 4.87e5 | 5.61e5 | 1.67e6 | 1.76e6 | inactive |
| Cpr60D | DRSC04492 | 3.95e5 | 4.21e5 | 1.99e6 | 2.04e6 | inactive |
| SmF | DRSC07397 | 2.51e5 | 2.21e5 | 1.17e6 | 1.26e6 | inactive |
| SmF | DRSC25054 | 6.08e5 | 2.70e5 | 4.55e5 | 4.18e5 | inactive |
| BckdhB | DRSC38763 | 9.22e5 | 9.75e5 | 2.17e6 | 2.14e6 | inactive |
| SmB | DRSC03437 | 9.79e5 | 1.24e6 | 2.03e6 | 2.66e6 | inactive |
| SmB | DRSC26259 | 2.40e5 | 2.42e5 | 6.54e5 | 8.81e5 | inactive |
| sau | DRSC00694 | 1.31e6 | 8.81e5 | 5.20e6 | 2.59e6 | inactive |
| AGBE | DRSC06861 | 1.20e6 | 1.24e6 | 1.40e6 | 1.53e6 | inactive |
| AGBE | DRSC27652 | 3.79e5 | 4.40e5 | 5.52e5 | 7.92e5 | inactive |
| CG32276 | DRSC08027 | 1.26e5 | 1.41e5 | 3.08e5 | 3.39e5 | inactive |
| Nop56 | DRSC14699 | 49343 | 49796 | 3.68e5 | 3.95e5 | inactive |
| CG16956 | DRSC02544 | 2.61e5 | 2.79e5 | 1.33e6 | 1.60e6 | inactive |
| zetaTry | DRSC07720 | 3.01e5 | 1.57e5 | 1.77e6 | 1.07e6 | inactive |
| CG5355 | DRSC02844 | 8.06e5 | 9.58e5 | 1.59e6 | 1.55e6 | inactive |
| fend | DRSC17601 | 1.06e6 | 8.40e5 | 6.73e5 | 5.66e5 | inactive |
| fend | DRSC17867 | 3.57e5 | 4.00e5 | 3.21e6 | 3.02e6 | inactive |
| Chc | DRSC20229 | 90406 | 1.09e5 | 5.93e5 | 8.15e5 | inactive |
| PpD3 | DRSC16796 | 95475 | 1.25e5 | 2.15e6 | 2.18e6 | inactive |
| PpD3 | DRSC36658 | – | – | – | – | inactive |
| PpD3 | DRSC36659 | – | – | – | – | inactive |
| CG7484 | DRSC10853 | 3.22e5 | 2.53e5 | 3.00e6 | 2.85e6 | inactive |
| Rme-8 | DRSC07054 | 8.71e5 | 7.86e5 | 3.07e6 | 2.81e6 | inactive |
| CG34160 | DRSC38919 | 8.38e5 | 9.35e5 | 1.92e6 | 2.02e6 | inactive |
| CG32299 + CG32298 | DRSC07980 | 1.76e5 | 1.77e5 | 4.74e5 | 5.41e5 | inactive |
| CG32299 + CG32298 | DRSC22354 | 5.62e5 | 5.52e5 | 6.84e5 | 7.39e5 | inactive |
| CG32299 + CG32298 | DRSC25827 | 5.06e5 | 5.23e5 | 7.60e5 | 5.78e5 | inactive |
| CG43366 | DRSC04857 | 2.61e5 | 3.62e5 | 2.56e6 | 2.95e6 | inactive |
| CG43366 | DRSC04864 | 2.96e5 | 3.26e5 | 2.25e6 | 1.74e6 | inactive |
| CG43366 | DRSC25725 | 1.65e6 | 1.24e6 | 1.47e6 | 1.04e6 | inactive |
| CG43366 | DRSC27579 | 2.60e5 | 2.47e5 | 6.20e5 | 7.55e5 | inactive |
| CG34038 | DRSC38892 | 9.39e5 | 6.03e5 | 2.03e6 | 1.20e6 | inactive |
| fliI | DRSC20578 | 5.09e5 | 4.17e5 | 2.87e6 | 3.47e6 | inactive |
| pie | DRSC03590 | 8.27e5 | 4.41e5 | 2.04e6 | 1.31e6 | inactive |
| CG14424 | DRSC18472 | 1.93e5 | 1.56e5 | 2.36e6 | 1.82e6 | inactive |
| CG14424 | DRSC29124 | 9.75e5 | 1.01e6 | 1.38e6 | 1.33e6 | inactive |
| gcl | DRSC07623 | 8.57e5 | 7.02e5 | 1.14e6 | 1.12e6 | inactive |
| gcl | DRSC27995 | 8.21e5 | 6.84e5 | 1.58e6 | 1.21e6 | inactive |
| scu | DRSC20369 | 4.23e5 | 4.11e5 | 3.70e6 | 2.92e6 | inactive |
| scu | DRSC27026 | 3.69e5 | 2.00e5 | 5.94e5 | 4.48e5 | inactive |
| Ppr-Y | DRSC20892 | 7.50e5 | 9.66e5 | 6.81e5 | 7.50e5 | inactive |
| CG31326 | DRSC16532 | 95972 | 82488 | 1.03e6 | 1.64e6 | inactive |
| CG31326 | DRSC26494 | 1.76e5 | 2.05e5 | 2.37e5 | 2.16e5 | inactive |
| CG4213 | DRSC00641 | 1.70e5 | 1.04e5 | 9.97e5 | 8.56e5 | inactive |
| CG34396 | DRSC04245 | 1.78e5 | 2.49e5 | 1.58e6 | 1.96e6 | inactive |
| CG34396 | DRSC04246 | 1.15e5 | 2.47e5 | 8.45e5 | 1.38e6 | inactive |
| CG34396 | DRSC29674 | 2.86e5 | 5.44e5 | 6.85e5 | 6.85e5 | inactive |
| CG10481 | DRSC02063 | 1.81e5 | 1.84e5 | 1.41e6 | 1.63e6 | inactive |
| Vps15 | DRSC16553 | 42689 | 61689 | 3.65e5 | 5.15e5 | inactive |
| Vps15 | DRSC36917 | – | – | – | – | inactive |
| Vps15 | DRSC36918 | – | – | – | – | inactive |

Look-ups from the entries so far.
CG34038 [DRSC38892], activity call: inactive
Under “firefly reporter light, replicate 2”, Cpr60D [DRSC04492] reads 4.21e5
For “activity call”, CG14424 [DRSC18472] is entered as inactive
